Results on 1 molecule are retold here after patent publication US20220003782A1 (METAFORA BIOSYSTEMS, published 2022).

In the test the target is T1, sodium-dependent multivitamin transporter / solute carrier family 5 member 6 (SMVT/SLC5A6) (human) (UniProt Q9Y289).
T1 sequence: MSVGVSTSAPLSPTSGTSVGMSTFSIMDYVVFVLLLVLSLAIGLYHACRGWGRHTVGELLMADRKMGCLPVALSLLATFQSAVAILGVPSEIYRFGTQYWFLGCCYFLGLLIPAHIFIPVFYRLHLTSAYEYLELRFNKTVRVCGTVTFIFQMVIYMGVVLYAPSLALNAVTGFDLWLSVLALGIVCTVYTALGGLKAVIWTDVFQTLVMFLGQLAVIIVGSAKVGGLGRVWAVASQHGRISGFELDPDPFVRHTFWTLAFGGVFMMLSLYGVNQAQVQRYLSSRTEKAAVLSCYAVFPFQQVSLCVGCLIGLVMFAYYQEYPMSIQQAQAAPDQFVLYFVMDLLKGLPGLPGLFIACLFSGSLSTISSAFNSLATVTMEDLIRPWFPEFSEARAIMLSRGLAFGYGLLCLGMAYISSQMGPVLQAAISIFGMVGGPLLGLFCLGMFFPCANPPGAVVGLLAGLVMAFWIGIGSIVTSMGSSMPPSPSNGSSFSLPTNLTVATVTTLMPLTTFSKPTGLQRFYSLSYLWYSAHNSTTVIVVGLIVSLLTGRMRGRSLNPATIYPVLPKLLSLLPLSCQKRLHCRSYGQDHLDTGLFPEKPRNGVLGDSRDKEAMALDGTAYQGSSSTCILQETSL
Description: flow cytometry on HEK 293T cells with SMVT overexpression or siRNA knockdown.

These are yes or no findings as the source states them, for the method shown. Some binding calls cover weakened binding; strength is not graded here. Where a sequence is shown, tags or fusion partners need not be part of it.

B1: PERV-B RBD ligand fused to a mouse Fc fragment (SEQ ID NO: 13) (Fc fusion)
chain: KRLIDSSNPHRPLSLTWLIIDPDTGVTVNSTRGVAPRGTWWPELHFCLRLINPAVKSTPPNLVRSYGFYCCPGTEKEKYCGGSEESFCRRWSCVTSNDGDWKWPISLQDRVKFSFVNSGPGKYKVMKLYKDKSCSPSDLDYLKISFTEKGKQENIQKWINGMSWGIVFYKYGGGAGSTLTIRLRIEAGTEPPVAVGSVDVPRDCGCKPCICTVPEVSSVFIFPPKPKDVLTITLTPKVTCVVVDISKDDPEVQFSWFVDDVEVHTAQTQPREEQFNSTFRSVSELPIMHQDWLNGKEFKCRVNSAAFPAPIEKTISKTKGRPKAPQVYTIPPPKEQMAKDKVSLTCMITDFFPEDITVEWQWNGQPAENYKNTQPIMDTDGSYFVYSKLNVQKSNWEAGNTFTCSVLHEGLHNHHTEKSLSHSPGK
With B1, the binding result was “binds”.
